# For at least one compound, name, drawing or mass did not settle the structure.
# Chains of the proteins cited; added tags and fusions are not shown. Residues count along the entry.
# UniProt P00747, 97-580 limits assumed: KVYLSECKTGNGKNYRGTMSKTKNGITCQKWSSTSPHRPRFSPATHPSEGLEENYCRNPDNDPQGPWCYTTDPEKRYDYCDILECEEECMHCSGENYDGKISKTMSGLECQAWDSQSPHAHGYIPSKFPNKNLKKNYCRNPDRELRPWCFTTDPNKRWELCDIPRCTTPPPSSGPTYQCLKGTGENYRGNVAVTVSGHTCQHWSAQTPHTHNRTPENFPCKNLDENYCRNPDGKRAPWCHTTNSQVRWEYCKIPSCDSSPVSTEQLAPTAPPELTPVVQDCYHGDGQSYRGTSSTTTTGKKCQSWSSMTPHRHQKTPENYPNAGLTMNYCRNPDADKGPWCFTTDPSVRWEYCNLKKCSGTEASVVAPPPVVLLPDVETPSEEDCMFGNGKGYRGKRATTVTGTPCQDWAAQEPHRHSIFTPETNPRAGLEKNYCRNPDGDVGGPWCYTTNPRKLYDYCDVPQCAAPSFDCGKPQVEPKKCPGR
# UniProt P00747, 581-810 limits assumed: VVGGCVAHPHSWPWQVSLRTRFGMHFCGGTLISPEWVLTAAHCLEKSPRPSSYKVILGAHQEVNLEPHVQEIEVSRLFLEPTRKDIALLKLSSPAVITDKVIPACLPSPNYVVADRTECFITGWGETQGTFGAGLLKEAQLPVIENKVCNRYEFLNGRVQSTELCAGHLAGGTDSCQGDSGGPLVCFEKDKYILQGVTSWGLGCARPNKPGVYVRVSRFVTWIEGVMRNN
# Legend:
# Assay type in all cases: biochemical
# Settings in all cases: table of known reference compounds
# [1] = test system: trypsin; experiment: Trypsin inhibition (hydrolysis of benzoyl-DL-arginine-p-nitroanilide, absorption at 410nm)
# [2] = biological target: T1, thrombin (Bos taurus, UniProt P00735); experiment: Thrombin inhibition (hydrolysis of Boc-Val-Pro-Arg-NH-Mec, fluorescence of 7-amino-4-methylcoumarin)
# T1 construct: purchased Mochida Permaceutical CO; (Mochida Pharmaceutical)
# [3] = biological target: T2, plasmin (Homo sapiens, UniProt P00747); experiment: Plasmin inhibition (streptokinase-activated plasminogen, hydrolysis of Boc-Val-Leu-Lys-NH-Mec, fluorescence)
# T2 construct: purchased Sigma Ltd. (plasminogen); Lederle Ltd. (Vridase, streptokinase)
smiles,measurement,setting,value
CS(=O)(=O)O.NC(N)=Nc1ccc(C(=O)Oc2ccc(SCCN3C(=O)CCC3=O)cc2)cc1 [Example E-3123],REFERENCE a known compound(IC50) trypsin,[1],3.6 × 10-7 mol concentration
same,REFERENCE a known compound(IC50) thrombin,[2],4 × 10-7 mol concentration
same,REFERENCE a known compound(IC50) plasmin,[3],7.5 × 10-8 mol concentration

# Source: EP0673924A1, “PROPIONIC ACID DERIVATIVE” (TEIKOKU CHEMICAL INDUSTRY CO., LTD., priority 1992, dated 1994)
